According to patent US20210214460A1 (AstraZeneca / MedImmune, published 2021):
These are yes or no findings as the source states them, for the method shown. Some entries that bind do so weakly or less than the wild type.

Experiments:
[1] = target: cynomolgus monkey BCMA stably expressed on Ad293 cells (cynomolgus monkey); test: FACS on Ad293 cells expressing cynoBCMA
[2] = target: cynomolgus monkey BCMA stably expressed on Ad293 cells (cynomolgus monkey); test: FACS on Ad293 cells stably expressing cynomolgus BCMA
[3] = target: cynomolgus monkey BCMA stably expressed on Ad293 cells (cynomolgus monkey); test: FACS on Ad293 cells stably expressing cynomolgus BCMA, Alexa Fluor 647 secondary antibody, raw MFI (geo mean)

Measured: binding

B1: 15B2GL monoclonal antibody (antibody, V domains shown)
VH: EVQLVESGGGLVKPGGSLRLSCAASGFTFRSYSMNWVRQAPGKGLEWVSSISGSSNYIYYADSVKGRFTISRDNAKNSLYLQMNSLRAEDTAVYYCARGGNYYVEYFQYWGQGTLVTVSS
VL: EIVLTQSPGTLSLSPGERATLSCRASQYISSNYLAWYQQKPGQAPRLLIYGASNRATGIPDRFSGSGSGTDFTLTISRLEPEDFAVYYCQQYGSSPITFGQGTKLEIK
notes: Clone 15B2 was converted into human IgG1 and germlined at four residues (15B2GL); also called germlined 15B2
binds: [1] | [2] | [3]
